# Values joined by “and” are separate entries in the source; they are usually repeats but may differ in a detail not shown here. Equal values may be shown once. This is one part of the list. For some of these results: The source does not settle which construct or isoform was used.
# What was measured:
# Assay in all cases: protein microarray (ProtoArray v5.0), streptavidin-Alexa Fluor 647
# Conditions in all cases: 3'-biotin; 20 mM Tris (pH 7.5), 5 mM MgCl2, 100 mM KCl, 0.1% Tween-20, A/T-rich and random oligonucleotide blockers; temperature not stated; high values mean tight binding
# [1] = test system: IRF5 (human)
# [2] = test system: IRF6 (human)
# [3] = test system: ITGB1BP3 (human)
# [4] = target: ITM2B (UniProt Q9Y287)
# [5] = test system: Importin-4 (human)
# [6] = test system: Inhibitor of growth protein 4 (human)
# [7] = test system: Interferon alpha-4 (human)
# [8] = test system: Interferon-induced guanylate-binding protein 2 (human)
# [9] = test system: Interleukin-1 receptor antagonist protein (human)
# [10] = test system: Interleukin-18-binding protein (human)
sequence,measurement,setting,value
GGGGACAGGGGTATGGGGAGGGG [G4-3 biotinylated (CtG)],binding signal,[1],-0.319 z-score
same,binding signal,[2],-0.326 z-score
same,binding signal,[3],-0.344 z-score
same,binding signal,[4],-0.351 z-score
same,binding signal,[5],-0.311 z-score
same,binding signal,[6],-0.343 z-score
same,binding signal,[7],-0.329 z-score and -0.313 z-score
same,binding signal,[8],-0.339 z-score
same,binding signal,[9],-0.304 z-score
same,binding signal,[10],-0.331 z-score

# Source: publication PMC5996148
